This assay concerns the target 3xFLAG::SFA-1 (C. elegans). Nature of the assay: co-IP; Flag immunoprecipitation (FLAG M2 antibody, Dynabeads Protein G) from lysates of worms expressing HA::RNP-6, FLAG-SFA-1 or both; 0.5% NP40, 150 mM NaCl, 50 mM Tris pH 7.4; immunoblot. Background: A western blot detects proteins with antibodies after separation by electrophoresis.

Results are given in words; binding and its absence hold for the method and conditions named. Binding seen in cells or lysates may run through a third protein. Where a sequence is shown, tags or fusion partners need not be part of it.

B1: HA::RNP-6 (protein, UniProt Q9N3S4 1-749)
chain: MEENSADIENRPVAAFRPAVSVPMPVLPQDGEVFVGPGGKKDAQKIGLGLSKLSSKRKDDIQMAKKYAMDISIKQILLRQQKQQQENQQRQQMYSQALSIMSRIYVGSISFEIREDMLRRAFDPFGPIKSINMSWDPATGHHKTFAFVEYEVPEAALLAQESMNGQMLGGRNLKVNSMMFQEMRLPQNMPQAQPIIDMVQKDAKKYFRVYVSSVHPDLSETDLKSVFEAFGEIVKCQLARAPTGRGHRGFGYLEFNNLTSQSEAIAGMNMFDLGGQYLRVGKCVTPPDALTYLQPASVSAIPASVSVACAAITAKVMAAEAAAGSSPKTPSESGGSRAASPAPRAQSPATPSSSLPTDIENKAVISSPKKEPEEIEVPPLPPSAPDVVKDEPMEIEEEEEYTIPEEKPKPVAIVPPPGLAIPSLVAPPGLIAPTEIGIVVPNPSFLAQQQQKIEEKIEEEEEARTERVKLSTSQRKKMKREKLNQMTFEEKMAQVLGQQKAVQNQRMADPVTFGALDDTVAWKDPSNEDQTSEDGKMLAIMGPGRGGDNVASMALALMDGGSSLMLANNAKAKEAAAALALEPKKKKKVKEGKKIQPKLNTAQALAAAAKAGEMSDALKNEVMNSEDASLASQEGLEIRGNDARHLLMTKLMRTNRSNVIVLRNMVTPQDIDEFLEGEIREECGKYGNVIDVVIANFASSGLVKIFVKYSDSMQVDRAKAALDGRFFGGNTVKAEAYDQILFDHADYTG
As for B1, the binding entry is “no binding”.

For the origin of these results see PMC7332298.
